No constants are given. Whether binding was seen depends on the method and setting. Some binding calls cover weakened binding; strength is not graded here.
T1: CusB spin labeled at A236C and A248C positions (E. coli) (UniProt P77239)
T1 sequence (chain, MTSSL nitroxide spin label on the cysteines at 236 and 248): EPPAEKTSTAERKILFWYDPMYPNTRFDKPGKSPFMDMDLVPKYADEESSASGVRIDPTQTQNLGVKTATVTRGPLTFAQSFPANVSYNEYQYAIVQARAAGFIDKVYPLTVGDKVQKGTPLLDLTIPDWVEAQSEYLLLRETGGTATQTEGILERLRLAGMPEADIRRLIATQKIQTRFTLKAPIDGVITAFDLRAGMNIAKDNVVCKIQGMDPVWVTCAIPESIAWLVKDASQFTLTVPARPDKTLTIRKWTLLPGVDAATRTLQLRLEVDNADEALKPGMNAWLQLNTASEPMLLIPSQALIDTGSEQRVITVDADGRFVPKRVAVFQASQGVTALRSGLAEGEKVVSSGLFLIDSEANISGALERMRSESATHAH


Target: T1, CusB spin labeled at A236C and A248C positions (E. coli)
Assay: DEER (pulsed EPR) distance measurements with site-directed spin labeling; CusB spin labeled (MTSSL) at A236C and A248C, 0.01-0.02 mM; apo, holo (Cu(I):CusB 3:1), holo + pep5, + pep8 with Cu(I); Q-band, 50 K; binding inferred from the distance distributions; both purified

Row | Binder | binding
1 | IQGMD (C-terminal amide) [pep5] | binds
2 | CusB spin labeled at A236C and A248C positions (protein, UniProt P77239 29-407, MTSSL nitroxide spin label on the cysteines at 236 and 248) EPPAEKTSTAERKILFWYDPMYPNTRFDKPGKSPFMDMDLVPKYADEESSASGVRIDPTQTQNLGVKTATVTRGPLTFAQSFPANVSYNEYQYAIVQARAAGFIDKVYPLTVGDKVQKGTPLLDLTIPDWVEAQSEYLLLRETGGTATQTEGILERLRLAGMPEADIRRLIATQKIQTRFTLKAPIDGVITAFDLRAGMNIAKDNVVCKIQGMDPVWVTCAIPESIAWLVKDASQFTLTVPARPDKTLTIRKWTLLPGVDAATRTLQLRLEVDNADEALKPGMNAWLQLNTASEPMLLIPSQALIDTGSEQRVITVDADGRFVPKRVAVFQASQGVTALRSGLAEGEKVVSSGLFLIDSEANISGALERMRSESATHAH | binds
